Data on three molecules can be found in paper PMC12085317.

Assay [1] addresses T1, CSTF2_TurboID_HA fusion protein (UniProt P33240).
T1 sequence: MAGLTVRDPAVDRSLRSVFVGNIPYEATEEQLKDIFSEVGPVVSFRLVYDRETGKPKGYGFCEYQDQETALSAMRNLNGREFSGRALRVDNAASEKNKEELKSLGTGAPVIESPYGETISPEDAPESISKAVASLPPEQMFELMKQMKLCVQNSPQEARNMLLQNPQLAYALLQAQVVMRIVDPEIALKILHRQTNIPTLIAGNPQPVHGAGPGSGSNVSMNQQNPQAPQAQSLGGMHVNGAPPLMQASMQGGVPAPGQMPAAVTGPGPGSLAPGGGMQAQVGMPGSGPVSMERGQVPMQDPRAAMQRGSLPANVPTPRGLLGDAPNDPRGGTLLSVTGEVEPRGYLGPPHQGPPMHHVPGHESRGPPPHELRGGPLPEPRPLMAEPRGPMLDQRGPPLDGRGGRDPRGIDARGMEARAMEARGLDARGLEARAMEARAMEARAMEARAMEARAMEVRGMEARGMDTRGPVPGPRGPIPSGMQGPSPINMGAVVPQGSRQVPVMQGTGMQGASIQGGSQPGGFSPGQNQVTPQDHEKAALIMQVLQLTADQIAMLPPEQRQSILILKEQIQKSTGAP
Description: proximity labelling; CSTF2_TurboID_HA expressed in MCF7 cells, 50 µM biotin and 1 mM ATP for 3 h, with 100 nM E2 or ethanol; biotinylated proteins of nuclear and cytoplasmic lysates captured on beads (Neutravidin agarose in the methods, streptavidin magnetic beads in the results), LC-MS/MS; cytoplasmic proteins subtracted from the nuclear list; SAINT scoring.

For assay [2], the target named is T1, CSTF2_TurboID_HA fusion protein. Description: proximity labelling; independent experiment: CSTF2-TurboID in MCF7 cells, 50 µM biotin with or without E2 for 45 min and 3 h; nuclear and cytoplasmic lysates, affinity capture with streptavidin beads, western blot with anti-ADAR1, anti-CSTF2 and anti-Biotin.

Results are given in words; binding and its absence hold for the method and conditions named. Binding seen in cells or lysates may run through a third protein. Here binding means that the protein was enriched with, or labelled near, the bait; the list need not be complete. Sequences can lack the tags named with a protein.

B1: CPSF3 (protein, UniProt Q9UKF6 1-684)
chain: MSAIPAEESDQLLIRPLGAGQEVGRSCIILEFKGRKIMLDCGIHPGLEGMDALPYIDLIDPAEIDLLLISHFHLDHCGALPWFLQKTSFKGRTFMTHATKAIYRWLLSDYVKVSNISADDMLYTETDLEESMDKIETINFHEVKEVAGIKFWCYHAGHVLGAAMFMIEIAGVKLLYTGDFSRQEDRHLMAAEIPNIKPDILIIESTYGTHIHEKREEREARFCNTVHDIVNRGGRGLIPVFALGRAQELLLILDEYWQNHPELHDIPIYYASSLAKKCMAVYQTYVNAMNDKIRKQININNPFVFKHISNLKSMDHFDDIGPSVVMASPGMMQSGLSRELFESWCTDKRNGVIIAGYCVEGTLAKHIMSEPEEITTMSGQKLPLKMSVDYISFSAHTDYQQTSEFIRALKPPHVILVHGEQNEMARLKAALIREYEDNDEVHIEVHNPRNTEAVTLNFRGEKLAKVMGFLADKKPEQGQRVSGILVKRNFNYHILSPCDLSNYTDLAMSTVKQTQAIPYTGPFNLLCYQLQKLTGDVEELEIQEKPALKVFKNITVIQEPGMVVLEWLANPSNDMYADTVTTVILEVQSNPKIRKGAVQKVSKKLEMHVYSKRLEIMLQDIFGEDCVSVKDDSILSVTVDGKTANLNLETRTVECEEGSEDDESLREMVELAAQRLYEALTPVH
For the molecule B1, the binding entry in assay [1] is “binds”.

B2: CPSF2 (protein, UniProt Q9P2I0 1-782)
chain: MTSIIKLTTLSGVQEESALCYLLQVDEFRFLLDCGWDEHFSMDIIDSLRKHVHQIDAVLLSHPDPLHLGALPYAVGKLGLNCAIYATIPVYKMGQMFMYDLYQSRHNTEDFTLFTLDDVDAAFDKIQQLKFSQIVNLKGKGHGLSITPLPAGHMIGGTIWKIVKDGEEEIVYAVDFNHKREIHLNGCSLEMLSRPSLLITDSFNATYVQPRRKQRDEQLLTNVLETLRGDGNVLIAVDTAGRVLELAQLLDQIWRTKDAGLGVYSLALLNNVSYNVVEFSKSQVEWMSDKLMRCFEDKRNNPFQFRHLSLCHGLSDLARVPSPKVVLASQPDLECGFSRDLFIQWCQDPKNSIILTYRTTPGTLARFLIDNPSEKITEIELRKRVKLEGKELEEYLEKEKLKKEAAKKLEQSKEADIDSSDESDIEEDIDQPSAHKTKHDLMMKGEGSRKGSFFKQAKKSYPMFPAPEERIKWDEYGEIIKPEDFLVPELQATEEEKSKLESGLTNGDEPMDQDLSDVPTKCISTTESIEIKARVTYIDYEGRSDGDSIKKIINQMKPRQLIIVHGPPEASQDLAECCRAFGGKDIKVYMPKLHETVDATSETHIYQVRLKDSLVSSLQFCKAKDAELAWIDGVLDMRVSKVDTGVILEEGELKDDGEDSEMQVEAPSDSSVIAQQKAMKSLFGDDEKETGEESEIIPTLEPLPPHEVPGHQSVFMNEPRLSDFKQVLLREGIQAEFVGGVLVCNNQVAVRRTETGRIGLEGCLCQDFYRIRDLLYEQYAIV
As for B2, the binding result in assay [1] is listed as “binds”.

B3: ADAR1 (protein, UniProt P55265 1-1226)
chain: MNPRQGYSLSGYYTHPFQGYEHRQLRYQQPGPGSSPSSFLLKQIEFLKGQLPEAPVIGKQTPSLPPSLPGLRPRFPVLLASSTRGRQVDIRGVPRGVHLRSQGLQRGFQHPSPRGRSLPQRGVDCLSSHFQELSIYQDQEQRILKFLEELGEGKATTAHDLSGKLGTPKKEINRVLYSLAKKGKLQKEAGTPPLWKIAVSTQAWNQHSGVVRPDGHSQGAPNSDPSLEPEDRNSTSVSEDLLEPFIAVSAQAWNQHSGVVRPDSHSQGSPNSDPGLEPEDSNSTSALEDPLEFLDMAEIKEKICDYLFNVSDSSALNLAKNIGLTKARDINAVLIDMERQGDVYRQGTTPPIWHLTDKKRERMQIKRNTNSVPETAPAAIPETKRNAEFLTCNIPTSNASNNMVTTEKVENGQEPVIKLENRQEARPEPARLKPPVHYNGPSKAGYVDFENGQWATDDIPDDLNSIRAAPGEFRAIMEMPSFYSHGLPRCSPYKKLTECQLKNPISGLLEYAQFASQTCEFNMIEQSGPPHEPRFKFQVVINGREFPPAEAGSKKVAKQDAAMKAMTILLEEAKAKDSGKSEESSHYSTEKESEKTAESQTPTPSATSFFSGKSPVTTLLECMHKLGNSCEFRLLSKEGPAHEPKFQYCVAVGAQTFPSVSAPSKKVAKQMAAEEAMKALHGEATNSMASDNQPEGMISESLDNLESMMPNKVRKIGELVRYLNTNPVGGLLEYARSHGFAAEFKLVDQSGPPHEPKFVYQAKVGGRWFPAVCAHSKKQGKQEAADAALRVLIGENEKAERMGFTEVTPVTGASLRRTMLLLSRSPEAQPKTLPLTGSTFHDQIAMLSHRCFNTLTNSFQPSLLGRKILAAIIMKKDSEDMGVVVSLGTGNRCVKGDSLSLKGETVNDCHAEIISRRGFIRFLYSELMKYNSQTAKDSIFEPAKGGEKLQIKKTVSFHLYISTAPCGDGALFDKSCSDRAMESTESRHYPVFENPKQGKLRTKVENGEGTIPVESSDIVPTWDGIRLGERLRTMSCSDKILRWNVLGLQGALLTHFLQPIYLKSVTLGYLFSQGHLTRAICCRVTRDGSAFEDGLRHPFIVNHPKVGRVSIYDSKRQSGKTKETSVNWCLADGYDLEILDGTRGTVDGPRNELSRVSKKNIFLLFKKLCSFRYRRDLLRLSYGEAKKAARDYETAKNYFKKGLKDMGYGNWISKPQEEKNFYLCPV
B3: the binding entry in assay [1] and in assay [2] was “binds” each time.
